Measured values from patent US10159726B2, “Peptides, combination of peptides and scaffolds for use in immunotherapeutic treatment of various cancers” (Immatics Biotechnologies GmbH, priority 2015, dated 2018).

Tested on: HLA-A*02 molecules of primary tumors
Experiment: Identification and relative LC-MS quantitation of HLA-A*02 tumor-associated peptides presented on tissue samples (XPRESIDENT presentation profiles)
Parameters: species or system human
[1] = Table 8A: selected HLA-A*02-binding tumor-associated peptides, cancer entities on which the peptide was found presented
[2] = Table 8B: selected HLA-A*02 peptides, presentation on additional cancer entities

Substance | Peptide Presentation on cancer entities [1] | Peptide Presentation on cancer entities [2]
1 (PLWGKVFYL; listed as Homo sapiens) [compound 1] | UBC, OSCAR, HCC, NSCLC, clPC | GBC_CCC
2 (ALYGKLLKL; listed as Homo sapiens) [compound 2] | RCC, OSCAR, GB, BRCA, CLL, UBC, HCC, SCLC, NSCLC, CRC, OC, GC, NHL | clPC, UTC, PCA, MEL, AML
3 (TLLGKQVTL; listed as Homo sapiens) [compound 3] | – | CLL, NSCLC, NHL, AML
4 (ELAEIVFKV; listed as Homo sapiens) [compound 4] | CRC, CLL, NSCLC, GB | –
5 (SLFGQEVYC; listed as Homo sapiens) [compound 5] | HCC, GB, CRC | GBC_CCC, PCA
6 (FLDPAQRDL; listed as Homo sapiens) [compound 6] | UBC, NSCLC, GB, AML, clPC | MEL
7 (AAAAKVPEV; listed as Homo sapiens) [compound 7] | NSCLC, GB, CRC | MEL, HNSCC, NHL
8 (KLGPFLLNA; listed as Homo sapiens) [compound 8] | GC, GB, clPC, NSCLC | UTC, HCC
9 (FLGDYVENL; listed as Homo sapiens) [compound 9] | CLL, CRC, UBC | UTC, AML, OC, clPC
10 (KTLDVFNIIL; listed as Homo sapiens) [compound 10] | CLL, GC, GBC_CCC, OSCAR | –
11 (GVLKVFLENV; listed as Homo sapiens) [compound 11] | HCC, NSCLC, GC, OC, OSCAR | –
12 (GLIYEETRGV; listed as Homo sapiens) [compound 12] | GC, OSCAR, NSCLC, NHL | AML, UTC, HNSCC
13 (VLRDNIQGI; listed as Homo sapiens) [compound 13] | NSCLC, GBC_CCC, OC, GC, BRCA, OSCAR, CRC, GB, UEC, CLL, RCC, UBC, HCC, MEL, SCLC, NHL | AML, HNSCC
15 (ALGDYVHAC; listed as Homo sapiens) [compound 15] | HCC, GC | –
16 (HLYNNEEQV; listed as Homo sapiens) [compound 16] | GBC_CCC, NSCLC, GB, clPC, CRC | –
19 (TLLPTVLTL; listed as Homo sapiens) [compound 19] | RCC, UBC, SCLC | GBC_CCC, BRCA, UTC
20 (ALDGHLYAI; listed as Homo sapiens) [compound 20] | RCC, UBC, GC | –
21 (SLYHRVLLY; listed as Homo sapiens) [compound 21] | RCC, OSCAR, NSCLC | –
22 (MLSDLTLQL; listed as Homo sapiens) [compound 22] | CRC, PCA, RCC, NSCLC, BRCA, GC, SCLC, PC, OSCAR | MEL
24 (FLWNGEDSAL; listed as Homo sapiens) [compound 24] | PC, CRC | NSCLC, GC, UTC
26 (KVDGVVIQL; listed as Homo sapiens) [compound 26] | OSCAR, GC | –

Substance | Peptide Presentation on cancer entities [1] | Peptide Presentation on cancer entities [2]
27 (KVFGDLDQV; listed as Homo sapiens) [compound 27] | OSCAR, GC | –
28 (TLYSMDLMKV; listed as Homo sapiens) [compound 28] | – | HNSCC, RCC
29 (TLCNKTFTA; listed as Homo sapiens) [compound 29] | PCA, GB | –
33 (LLLPLLPPLSPSLG; listed as Homo sapiens) [compound 33] | – | MEL, NSCLC, GBC_CCC, GC, clPC, SCLC, GB, PC, MCC, CRC, HCC
34 (LLPKKTESHHKT; listed as Homo sapiens) [compound 34] | CRC, HCC, NSCLC, GB | UTC
35 (YVLPKLYVKL; listed as Homo sapiens) [compound 35] | CLL, CRC, NSCLC, GBC_CCC, UBC, OSCAR | HNSCC, NHL, AML
36 (KLYGIEIEV; listed as Homo sapiens) [compound 36] | NSCLC, GB, RCC | UTC
37 (ALINDILGELVKL; listed as Homo sapiens) [compound 37] | clPC, CRC, RCC, HCC | MEL, UTC
39 (ALMAVVSGL; listed as Homo sapiens) [compound 39] | OSCAR, GBC_CCC, CLL, BRCA, HCC, UBC, NSCLC, OC, GC, MEL | HNSCC, NHL, UTC, AML
41 (FVLPLVVTL; listed as Homo sapiens) [compound 41] | OC, OSCAR, CLL, PCA, SCLC, NSCLC, NHL | AML, CRC, BRCA, HNSCC, UTC
42 (VLSPFILTL; listed as Homo sapiens) [compound 42] | NSCLC, RCC, BRCA, UBC, OC, NHL | AML, CLL, UTC
43 (LLWAGPVTA; listed as Homo sapiens) [compound 43] | CLL, HCC, CRC, NSCLC, RCC, UBC, NHL, TC | HNSCC
44 (GLLWQIIKV; listed as Homo sapiens) [compound 44] | CRC, NSCLC, GC | –
45 (VLGPTPELV; listed as Homo sapiens) [compound 45] | CRC, SCLC, GC, clPC, PC | OSCAR, GBC_CCC, BRCA
46 (SLAKHGIVAL; listed as Homo sapiens) [compound 46] | PC, NSCLC, CRC, RCC, OC, clPC, PCA, NHL | UBC, HNSCC, GB, CLL, MEL, UTC, HCC
47 (GLYQAQVNL; listed as Homo sapiens) [compound 47] | NSCLC, SCLC | OSCAR
48 (TLDHKPVTV; listed as Homo sapiens) [compound 48] | OC, PCA, NSCLC | –
49 (LLDESKLTL; listed as Homo sapiens) [compound 49] | UBC, OC, PCA, NSCLC, RCC | –
51 (LLLDGDFTL; listed as Homo sapiens) [compound 51] | SCLC, HCC | OSCAR
52 (ELLSSIFFL; listed as Homo sapiens) [compound 52] | UBC, NSCLC, CRC, RCC | –
55 (IASAIVNEL; listed as Homo sapiens) [compound 55] | BRCA, GC | HCC, GBC_CCC

Substance | Peptide Presentation on cancer entities [1] | Peptide Presentation on cancer entities [2]
56 (KILDLTRVL; listed as Homo sapiens) [compound 56] | CRC, NSCLC | GBC_CCC
57 (VLISSTVRL; listed as Homo sapiens) [compound 57] | clPC, RCC, CLL, NHL | MEL
58 (ALDDSLTSL; listed as Homo sapiens) [compound 58] | clPC, PC, GB | –
59 (ALTKILAEL; listed as Homo sapiens) [compound 59] | UBC, NSCLC | HCC
60 (FLIDTSASM; listed as Homo sapiens) [compound 60] | UBC, SCLC, RCC | AML, CLL, BRCA, HNSCC, UTC, NHL
61 (HLPDFVKQL; listed as Homo sapiens) [compound 61] | BRCA, CLL, GBC_CCC | MEL, AML
62 (SLFNQEVQI; listed as Homo sapiens) [compound 62] | CLL, NHL | –
63 (TLSSERDFAL; listed as Homo sapiens) [compound 63] | NSCLC, GC | –
64 (GLSSSSYEL; listed as Homo sapiens) [compound 64] | – | GBC_CCC, HCC
65 (KLDGICWQV; listed as Homo sapiens) [compound 65] | – | GBC_CCC, HCC
66 (FITDFYTTV; listed as Homo sapiens) [compound 66] | – | MEL, UBC, HCC, HNSCC, CRC
67 (GVIETVTSL; listed as Homo sapiens) [compound 67] | NSCLC, GC, CRC | AML
68 (ALYGFFFKI; listed as Homo sapiens) [compound 68] | UBC | –
69 (GIYDGILHSI; listed as Homo sapiens) [compound 69] | UEC, GB | –
70 (GLFSQHFNL; listed as Homo sapiens) [compound 70] | HCC, NSCLC | BRCA, UTC, HNSCC, UBC, AML, OSCAR, clPC
71 (GLITVDIAL; listed as Homo sapiens) [compound 71] | SCLC, PCA | AML, MEL, UTC
72 (GMIGFQVLL; listed as Homo sapiens) [compound 72] | UBC, OC, CLL, GB, GBC_CCC | HNSCC, AML
74 (ILDETLENV; listed as Homo sapiens) [compound 74] | UBC, SCLC, NHL | AML, BRCA
75 (ILDNVKNLL; listed as Homo sapiens) [compound 75] | – | AML
76 (ILLDESNFNHFL; listed as Homo sapiens) [compound 76] | NSCLC | –
